Experimental data: the supplement of paper PMC10849652
This is one part of the list.

Chains of the proteins cited; added tags and fusions are not shown. Lines headed by an entry give the natural chain unless they say otherwise; changes in a name come on top.
UniProt Q9NX02: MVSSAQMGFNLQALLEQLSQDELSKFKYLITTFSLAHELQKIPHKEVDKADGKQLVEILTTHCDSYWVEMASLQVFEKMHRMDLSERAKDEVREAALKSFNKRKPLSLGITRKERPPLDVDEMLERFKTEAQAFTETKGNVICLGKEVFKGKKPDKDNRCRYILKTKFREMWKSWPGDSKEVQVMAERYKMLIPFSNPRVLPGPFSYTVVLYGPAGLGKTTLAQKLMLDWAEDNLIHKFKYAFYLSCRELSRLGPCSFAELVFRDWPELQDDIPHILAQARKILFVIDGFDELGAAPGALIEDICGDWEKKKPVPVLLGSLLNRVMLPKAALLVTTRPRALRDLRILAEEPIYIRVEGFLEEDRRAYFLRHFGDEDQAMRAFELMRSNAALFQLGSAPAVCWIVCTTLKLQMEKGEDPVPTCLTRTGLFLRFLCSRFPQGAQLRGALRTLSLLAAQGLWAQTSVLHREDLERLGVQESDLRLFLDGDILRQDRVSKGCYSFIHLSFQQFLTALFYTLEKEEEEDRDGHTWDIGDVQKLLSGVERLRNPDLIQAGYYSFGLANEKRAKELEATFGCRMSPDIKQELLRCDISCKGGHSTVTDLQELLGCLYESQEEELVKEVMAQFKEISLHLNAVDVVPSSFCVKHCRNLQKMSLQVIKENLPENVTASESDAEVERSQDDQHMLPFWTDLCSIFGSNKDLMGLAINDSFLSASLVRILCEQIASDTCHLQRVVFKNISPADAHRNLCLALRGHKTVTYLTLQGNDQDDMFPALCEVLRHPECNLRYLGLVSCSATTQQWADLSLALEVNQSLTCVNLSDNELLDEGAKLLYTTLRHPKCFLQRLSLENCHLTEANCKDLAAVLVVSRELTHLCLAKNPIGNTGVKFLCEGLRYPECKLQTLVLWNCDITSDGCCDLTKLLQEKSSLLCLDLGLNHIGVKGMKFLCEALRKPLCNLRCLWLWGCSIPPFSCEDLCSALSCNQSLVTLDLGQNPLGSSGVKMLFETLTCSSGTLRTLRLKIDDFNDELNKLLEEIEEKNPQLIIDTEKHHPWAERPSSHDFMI
UniProt Q12986: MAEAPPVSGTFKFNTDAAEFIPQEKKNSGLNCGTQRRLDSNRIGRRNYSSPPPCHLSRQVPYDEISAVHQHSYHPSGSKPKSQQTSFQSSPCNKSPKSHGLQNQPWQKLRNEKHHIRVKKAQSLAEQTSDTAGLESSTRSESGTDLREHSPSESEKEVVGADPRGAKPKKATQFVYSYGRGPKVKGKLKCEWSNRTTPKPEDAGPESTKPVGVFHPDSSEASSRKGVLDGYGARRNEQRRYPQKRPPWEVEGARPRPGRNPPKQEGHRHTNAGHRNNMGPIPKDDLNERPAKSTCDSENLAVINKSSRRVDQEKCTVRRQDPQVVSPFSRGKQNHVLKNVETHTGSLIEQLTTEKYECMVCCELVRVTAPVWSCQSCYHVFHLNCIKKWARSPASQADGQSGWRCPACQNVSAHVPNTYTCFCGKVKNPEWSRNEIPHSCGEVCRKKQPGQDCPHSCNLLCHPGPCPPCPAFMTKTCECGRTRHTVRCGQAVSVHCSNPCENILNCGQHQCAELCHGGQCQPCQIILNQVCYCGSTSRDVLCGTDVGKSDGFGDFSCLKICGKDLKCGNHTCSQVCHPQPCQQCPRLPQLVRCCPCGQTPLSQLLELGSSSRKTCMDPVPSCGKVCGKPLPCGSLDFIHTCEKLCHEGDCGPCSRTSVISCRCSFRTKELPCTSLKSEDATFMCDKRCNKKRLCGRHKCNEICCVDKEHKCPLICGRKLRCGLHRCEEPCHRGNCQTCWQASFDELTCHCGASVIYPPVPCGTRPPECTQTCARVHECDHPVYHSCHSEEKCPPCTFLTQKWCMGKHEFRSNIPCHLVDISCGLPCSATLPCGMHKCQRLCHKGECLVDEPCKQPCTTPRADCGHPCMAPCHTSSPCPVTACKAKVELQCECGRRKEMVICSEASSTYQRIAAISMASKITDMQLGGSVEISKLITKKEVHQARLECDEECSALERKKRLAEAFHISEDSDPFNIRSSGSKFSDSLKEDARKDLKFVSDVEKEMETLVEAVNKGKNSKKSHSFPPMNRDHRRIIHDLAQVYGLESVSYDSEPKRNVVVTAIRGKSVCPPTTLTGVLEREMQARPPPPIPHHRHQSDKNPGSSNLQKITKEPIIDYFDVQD
UniProt O14524: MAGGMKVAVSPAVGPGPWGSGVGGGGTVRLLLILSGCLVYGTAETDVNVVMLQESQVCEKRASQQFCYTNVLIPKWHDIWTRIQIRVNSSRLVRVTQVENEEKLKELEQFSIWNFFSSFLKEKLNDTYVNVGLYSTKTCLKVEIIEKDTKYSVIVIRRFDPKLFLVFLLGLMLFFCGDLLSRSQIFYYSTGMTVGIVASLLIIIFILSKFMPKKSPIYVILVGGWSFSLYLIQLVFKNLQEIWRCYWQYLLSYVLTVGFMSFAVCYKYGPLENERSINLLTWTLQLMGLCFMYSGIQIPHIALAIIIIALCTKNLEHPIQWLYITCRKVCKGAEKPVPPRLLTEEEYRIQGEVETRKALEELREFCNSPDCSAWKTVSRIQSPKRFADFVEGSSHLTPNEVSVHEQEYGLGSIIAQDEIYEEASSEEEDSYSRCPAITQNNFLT
UniProt Q7RTR2: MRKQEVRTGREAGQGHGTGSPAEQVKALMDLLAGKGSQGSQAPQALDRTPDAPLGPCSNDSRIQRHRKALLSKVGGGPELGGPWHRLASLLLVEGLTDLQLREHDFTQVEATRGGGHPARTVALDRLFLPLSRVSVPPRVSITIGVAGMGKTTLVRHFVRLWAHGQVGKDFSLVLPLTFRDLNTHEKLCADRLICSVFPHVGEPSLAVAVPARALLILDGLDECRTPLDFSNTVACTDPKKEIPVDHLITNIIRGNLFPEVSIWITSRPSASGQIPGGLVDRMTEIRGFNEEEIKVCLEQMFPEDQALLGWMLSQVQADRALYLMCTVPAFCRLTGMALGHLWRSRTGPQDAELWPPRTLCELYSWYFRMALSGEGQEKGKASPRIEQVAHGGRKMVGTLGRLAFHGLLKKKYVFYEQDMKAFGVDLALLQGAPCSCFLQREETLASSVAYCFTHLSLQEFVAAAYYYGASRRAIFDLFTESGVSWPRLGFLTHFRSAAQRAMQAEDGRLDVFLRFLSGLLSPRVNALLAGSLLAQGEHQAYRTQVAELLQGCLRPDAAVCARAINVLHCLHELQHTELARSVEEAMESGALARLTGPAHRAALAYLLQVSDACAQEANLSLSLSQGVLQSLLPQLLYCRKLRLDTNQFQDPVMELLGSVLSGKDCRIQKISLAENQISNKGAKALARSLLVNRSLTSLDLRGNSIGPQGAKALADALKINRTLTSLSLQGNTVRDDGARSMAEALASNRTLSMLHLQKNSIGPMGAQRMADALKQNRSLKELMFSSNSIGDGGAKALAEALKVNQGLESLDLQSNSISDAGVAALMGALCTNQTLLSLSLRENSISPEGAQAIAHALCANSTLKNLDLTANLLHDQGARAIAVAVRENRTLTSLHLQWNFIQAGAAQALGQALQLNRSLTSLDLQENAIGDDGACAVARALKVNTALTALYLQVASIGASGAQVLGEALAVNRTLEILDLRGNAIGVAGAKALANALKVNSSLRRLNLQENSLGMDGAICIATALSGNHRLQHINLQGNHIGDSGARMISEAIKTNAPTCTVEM
UniProt Q14934: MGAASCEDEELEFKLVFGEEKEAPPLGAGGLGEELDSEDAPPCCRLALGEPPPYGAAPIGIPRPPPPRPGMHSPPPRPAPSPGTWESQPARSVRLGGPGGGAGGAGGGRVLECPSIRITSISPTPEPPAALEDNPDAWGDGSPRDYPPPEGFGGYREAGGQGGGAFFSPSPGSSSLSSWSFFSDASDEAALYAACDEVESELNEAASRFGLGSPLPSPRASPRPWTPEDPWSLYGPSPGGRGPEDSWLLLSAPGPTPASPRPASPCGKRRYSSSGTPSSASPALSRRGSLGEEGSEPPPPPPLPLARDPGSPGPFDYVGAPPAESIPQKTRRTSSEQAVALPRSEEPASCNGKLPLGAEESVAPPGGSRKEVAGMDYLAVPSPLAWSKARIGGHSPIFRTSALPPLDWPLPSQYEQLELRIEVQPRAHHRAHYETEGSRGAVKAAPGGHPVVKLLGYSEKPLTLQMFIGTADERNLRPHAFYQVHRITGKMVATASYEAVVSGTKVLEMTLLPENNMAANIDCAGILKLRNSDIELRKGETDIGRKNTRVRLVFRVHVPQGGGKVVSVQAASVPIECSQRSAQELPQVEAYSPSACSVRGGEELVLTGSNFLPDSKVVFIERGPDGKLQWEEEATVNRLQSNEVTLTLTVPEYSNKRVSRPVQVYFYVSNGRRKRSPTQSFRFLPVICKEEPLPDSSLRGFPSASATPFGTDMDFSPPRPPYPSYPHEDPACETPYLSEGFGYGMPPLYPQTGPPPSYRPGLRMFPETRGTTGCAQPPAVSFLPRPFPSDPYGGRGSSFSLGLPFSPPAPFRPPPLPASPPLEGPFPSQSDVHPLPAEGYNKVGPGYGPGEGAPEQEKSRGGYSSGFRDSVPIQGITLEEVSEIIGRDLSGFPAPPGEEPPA
UniProt Q8IXH7, whole entry, looked up: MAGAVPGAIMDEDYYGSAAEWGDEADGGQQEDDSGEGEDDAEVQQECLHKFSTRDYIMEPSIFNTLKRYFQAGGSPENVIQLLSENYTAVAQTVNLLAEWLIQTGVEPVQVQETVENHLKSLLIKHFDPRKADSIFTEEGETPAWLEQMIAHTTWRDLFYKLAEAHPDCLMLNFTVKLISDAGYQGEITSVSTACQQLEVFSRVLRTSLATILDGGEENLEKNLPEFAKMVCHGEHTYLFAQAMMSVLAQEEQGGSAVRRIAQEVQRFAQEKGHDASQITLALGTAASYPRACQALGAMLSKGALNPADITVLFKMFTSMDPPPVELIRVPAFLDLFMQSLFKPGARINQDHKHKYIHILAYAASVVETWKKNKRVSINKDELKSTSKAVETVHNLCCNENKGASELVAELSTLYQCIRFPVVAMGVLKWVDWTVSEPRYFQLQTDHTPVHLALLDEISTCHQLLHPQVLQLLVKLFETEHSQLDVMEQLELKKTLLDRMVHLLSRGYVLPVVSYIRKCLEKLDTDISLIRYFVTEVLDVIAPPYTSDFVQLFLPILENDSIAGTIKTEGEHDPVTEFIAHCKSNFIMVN
UniProt P19838: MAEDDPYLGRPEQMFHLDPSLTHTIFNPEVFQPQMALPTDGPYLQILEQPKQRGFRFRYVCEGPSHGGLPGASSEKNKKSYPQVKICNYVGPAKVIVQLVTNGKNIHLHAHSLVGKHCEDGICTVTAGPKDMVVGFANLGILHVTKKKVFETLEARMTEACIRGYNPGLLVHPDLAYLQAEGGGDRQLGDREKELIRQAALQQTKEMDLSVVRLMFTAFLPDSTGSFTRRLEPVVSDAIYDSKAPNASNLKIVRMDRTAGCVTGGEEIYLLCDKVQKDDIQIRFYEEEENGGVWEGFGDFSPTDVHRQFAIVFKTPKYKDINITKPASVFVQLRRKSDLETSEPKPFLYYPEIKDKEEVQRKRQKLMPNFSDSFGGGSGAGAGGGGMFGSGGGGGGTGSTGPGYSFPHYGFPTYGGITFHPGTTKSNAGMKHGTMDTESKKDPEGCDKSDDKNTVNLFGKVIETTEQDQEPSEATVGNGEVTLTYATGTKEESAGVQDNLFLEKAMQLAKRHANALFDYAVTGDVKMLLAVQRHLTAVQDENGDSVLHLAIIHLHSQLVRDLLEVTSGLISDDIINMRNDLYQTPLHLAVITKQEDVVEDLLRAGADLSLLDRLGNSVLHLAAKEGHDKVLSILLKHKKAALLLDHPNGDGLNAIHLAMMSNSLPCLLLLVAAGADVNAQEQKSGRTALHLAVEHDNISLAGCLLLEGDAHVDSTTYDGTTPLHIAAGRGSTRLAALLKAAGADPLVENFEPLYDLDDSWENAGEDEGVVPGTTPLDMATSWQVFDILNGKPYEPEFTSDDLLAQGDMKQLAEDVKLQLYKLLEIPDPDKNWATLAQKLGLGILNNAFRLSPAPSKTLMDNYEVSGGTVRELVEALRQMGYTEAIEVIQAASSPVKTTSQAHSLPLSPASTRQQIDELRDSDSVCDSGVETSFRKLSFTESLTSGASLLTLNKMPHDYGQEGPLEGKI

What was measured:
Assay in all cases: log2 fold change, soluble protein after heating vs DMSO (PISA); higher = thermal stabilisation; K562 lysate, 10 uM; active = over 0.2 and 3.5 SD of the protein, either way, in both replicates (recomputed)
[1] = compound: C1=CC=C(C=C1)[C@H](COC2=CC3=C(C=C2)NC(=O)N3)NC(=O)C4=CC=CN(C4=O)CC5=CC(=C(C=C5)F)F
Outline: (§1)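 Following dounce homogenisation of K562 pellets in PBS pH 7.4 with 1 mM MgCl2, crude extract at 1 mg/mL protein was incubated for 30 min with 10 μM compound. Aliquots were then heated for 3 min over 48°C-58°C and pooled, NP-40 was added to 0.5% at 4°C, and soluble protein was recovered as the supernatant at 21,000xg for 90 min. Channel-sum-equalised TMTpro 16plex LC-MS/MS quantified this protein. Each value, from duplicates, is a log-two fold change in thermal stability relative to solvent controls.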

[2] = compound: CC1=C(SC2=C1C(=N[C@H](C3=NN=C(N32)C)CC(=O)N)C4=CC=C(C=C4)Cl)C
Outline: as §1

[3] = compound: CC1=C2C(=CC=C1)N=C(N(C2=O)C3=CC=CC=C3C)CN4C=NC5=C(N=CN=C54)N
Outline: as §1

[4] = compound: Cc1sc2c(c1C)C(c1ccc(Cl)cc1)=N[C@@H](CC(=O)OC(C)(C)C)c1nnc(C)n1-2
Outline: as §1

[5] = compound: c1ccc([C@@H]2C[C@H]2NC2CCNCC2)cc1
Outline: as §1

Measured: log2 fold change

NLRP2 (UniProt Q9NX02)
inactive: [1] -0.01 | [2] -0.027 | [3] -0.015 | [4] 0.03 | [5] 0.093

NFX1 (UniProt Q12986)
inactive: [1] 0.02 | [2] -0.03 | [3] -0.045 | [4] 0.048 | [5] -0.075

NEMP1 (UniProt O14524)
inactive: [1] 0.06 | [2] 0.122

NLRC3 isoform 2 (UniProt Q7RTR2)
inactive: [1] -0.158 | [2] 0.078 | [3] -0.064 | [4] -0.131

NFATC4 isoform 2 (UniProt Q14934)
inactive: [1] -0.077 | [2] 0.015 | [3] 0 | [4] -0.112 | [5] -0.197

NELFA (UniProt Q9H3P2)
inactive: [1] -0.055 | [2] 0.033 | [3] -0.022 | [4] -0.037 | [5] 0.054

NEBL (UniProt O76041)
inactive: [1] -0.074 | [2] 0.011 | [3] 0.047 | [4] 0.043 | [5] 0.014

NELFCD (UniProt Q8IXH7)
inactive: [1] -0.035 | [2] 0.023 | [3] 0.018 | [4] 0.003 | [5] 0.025

NEFH (UniProt P12036)
inactive: [1] -0.042 | [2] -0.031 | [3] -0.113 | [4] 0.038 | [5] 0.077

NFKB1 isoform 2 (UniProt P19838)
inactive: [1] 0.004 | [2] -0.003 | [3] 0.031 | [4] 0.002 | [5] -0.013
